Laboratory results published in patent publication US11712410 (K18, dated 2023).
These are yes or no findings as the source states them, for the method shown. Some binding calls cover weakened binding; strength is not graded here.

Target: T1, Hair Keratin KRTHB1 Basic (UniProt Q14533 304-505, limits assumed)
T1 construct: The keratin was printed onto a bare gold SPRi chip; also called natural hair keratin
T1 sequence (looked up): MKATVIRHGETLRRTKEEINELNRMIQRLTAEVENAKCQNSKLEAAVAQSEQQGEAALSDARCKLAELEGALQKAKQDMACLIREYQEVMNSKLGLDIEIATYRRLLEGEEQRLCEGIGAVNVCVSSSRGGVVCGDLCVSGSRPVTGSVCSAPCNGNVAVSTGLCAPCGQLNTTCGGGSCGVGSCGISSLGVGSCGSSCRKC
Test: SPRi (PlexArray HT), keratin on chip

binding: binds
B1: Aquis Pep1 (peptide)
peptide: FCGFPSCSTSG
notes: also called Aquis peptide 1; Peptide Aquis 1
